Values from PubChem BioAssay AID504808 (Drosophila RNAi Screening Center, 2011)
In all, the deposit lists about 21,000 reagents; below is an unselected part of those that have a named target and a result. In the full data, 18 (0.084%) were called active. 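Raw counts without plate normalisation, one of two replicates; the ratio scores behind the calls were not deposited.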 Names joined by + are all predicted targets of the reagent. Not given: the amount of reagent, the time to read-out.

Assay: 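Fly genes required to hold E2F transcription in check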 (primary screen)
Cells: Drosophila S2 cells
Knock-down reagent: long dsRNA against Drosophila genes
Detection: 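Dual luciferase plate measurements; E2F-specific signal taken as firefly over Renilla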
Direction: E2F firefly: higher = more E2F reporter activity; Renilla normaliser: higher = more normaliser reporter signal
Active means: 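Called active if the normalised E2F reporter went up by over 50%; the cutoff is arbitrary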

Target gene,DRSC id,"E2F firefly, rep 1","Renilla normaliser, rep 1",activity call
CG8132 (GeneID 41121),DRSC16383,1.36e5,6114,inactive
Mnat9 (GeneID 43726),DRSC14325,50202,3290,inactive
Ras64B (GeneID 38494),DRSC08689,1.08e5,4229,inactive
CG46298 (GeneID 36091),DRSC06222,1.40e5,4761,inactive
CG7011 (GeneID 39657),DRSC09347,1.28e5,3787,inactive
Vha100-2 (GeneID 42216),DRSC14152,70503,3611,inactive
CG7945 + yellow-k,DRSC10851,1.64e5,7241,inactive
CG43775 (GeneID 37863),DRSC04206,1.19e5,4894,inactive
CG34310 (GeneID 5740536),DRSC00943,1.45e5,5899,inactive
Snx3 (GeneID 41551),DRSC16027,1.49e5,6666,inactive
ftz-f1 (GeneID 40045),DRSC11347,1.50e5,7616,inactive
CG3386 (GeneID 38081),DRSC08566,99760,4221,inactive
Dnaaf4 (GeneID 34547),DRSC02405,1.51e5,5410,inactive
CG8343 (GeneID 35544),DRSC04905,67384,3567,inactive
RpS15 (GeneID 36851),DRSC07151,94027,5223,inactive
Ypel (GeneID 31949),DRSC17996,8005,648,inactive
Srp9 (GeneID 38883),DRSC10973,98767,3938,inactive
CG13437 (GeneID 37343),DRSC06397,95187,3805,inactive
mei-S332 (GeneID 37523),DRSC04704,80366,3564,inactive
dysf (GeneID 43174),DRSC14529,1.27e5,6432,inactive
dysf (GeneID 43174),DRSC14895,89571,5325,inactive
dysf (GeneID 43174),DRSC14896,1.16e5,6743,inactive
dysf (GeneID 43174),DRSC14897,50305,4074,inactive
ATPsynC (GeneID 43693),DRSC15236,1716,1064,inactive
Use1 (GeneID 39051),DRSC10180,92416,4467,inactive
dnt (GeneID 35207),DRSC03522,77506,3450,inactive
CG7102 (GeneID 34079),DRSC02647,81721,3238,inactive
CG7102 (GeneID 34079),DRSC03007,1.36e5,4895,inactive
Lamtor1 (GeneID 40193),DRSC10183,1.33e5,6823,inactive
dsh (GeneID 32078),DRSC19803,1.23e5,5897,inactive
CG7296 (GeneID 34469),DRSC03042,80669,3130,inactive
TwdlT (GeneID 44790),DRSC16677,1.34e5,6385,inactive
dind (GeneID 42243),DRSC16294,72000,4031,inactive
step (GeneID 35425),DRSC03694,1.08e5,4922,inactive
step (GeneID 35425),DRSC03699,1.06e5,3727,inactive
TfIIA-L (GeneID 43284),DRSC16882,1375,880,inactive
CG1105 (GeneID 40841),DRSC12528,68725,3182,inactive
Teh2 (GeneID 38502),DRSC08458,97523,4049,inactive
CG6974 (GeneID 41815),DRSC16160,1.09e5,6221,inactive
CG16736 (GeneID 41101),DRSC15145,1.28e5,5498,inactive
Tfb4 (GeneID 33294),DRSC00675,1.40e5,5343,inactive
path (GeneID 39106),DRSC10361,1.49e5,7324,inactive
dbe (GeneID 33269),DRSC00811,80591,4249,inactive
CG13869 + CG11099,DRSC06428,1.48e5,5252,inactive
Lnk (GeneID 43130),DRSC16729,2215,956,inactive
cuff (GeneID 36269),DRSC06315,92268,3746,inactive
Osbp (GeneID 42985),DRSC16779,82394,3891,inactive
Hydr1 (GeneID 35930),DRSC07063,58399,3989,inactive
sotv + CG10731,DRSC05930,1.41e5,4672,inactive
sotv + CG10731,DRSC05997,1.59e5,5467,inactive
CG11878 (GeneID 43050),DRSC14422,1.26e5,6375,inactive
CG3062 (GeneID 31396),DRSC18572,44228,3259,inactive
psq (GeneID 36118),DRSC07668,2020,220,inactive
Ncc69 (GeneID 39410),DRSC10412,72688,3357,inactive
Ncc69 (GeneID 39410),DRSC10413,87409,3486,inactive
Muc68E (GeneID 2768990),DRSC09146,1.38e5,4933,inactive
CG11099 (GeneID 37282),DRSC06034,1.55e5,4852,inactive
